Laboratory results: PubChem BioAssay AID330 (DTP/NCI, 2004)
The list does not hold the whole screen: it is rich in T/C values a quarter to a half above the control, in often repeated tests (any T/C) and in doses without a T/C. Further doses and runs are listed elsewhere. T/C: endpoint of the treated group in % of that of the vehicle group. Some doses have a count of surviving animals in place of a T/C: the source holds a T/C of zero for them, seemingly a mark for toxic or unscored doses. Some survivor counts are full or nearly so, which does not show that the dose was tolerated: survival well below the control is almost never listed, so the zero probably covers shortened survival too. Survivors were counted at the toxicity check, usually on the fifth day, unless a day is given; later deaths do not show. Schedule codes are those of the source, taken here to give the interval after Q, in days (D) or hours (H), and the number of doses after X. Some molecules as drawn cover several salts, stereoisomers or complexes of the source; a dose is that of the sample tested. Where survival is the endpoint, the PubChem record calls one and a half times the control and up active, and a quarter to a half above the control has no call in these data; cut-offs in other NCI protocols can differ. Some T/C values are followed by the survivors on the day toxicity was checked, most often the fifth; where none is given, no animal had died by that day. Some doses were run more than once; the values are given in rising order.

Tested on: P388 leukemia ip, CD2F1 mice, survival T/C
Test: NCI In Vivo Anticancer Drug Screen. Data for tumor model P388 Leukemia (intraperitoneal) in CD2F1 (CDF1) mice
Conditions: T/C endpoint: median survival time, higher T/C = longer survival

With Nc1nc(N)c2cc(C=O)ccc2n1 the survivor count (dose: 12.5 mg/kg/injection, schedule: Q01DX009 (ip), vehicle: water) was 3 of 6, the survivor count (dose: 25.0 mg/kg/injection, schedule: Q01DX009 (ip), vehicle: water) was 2 of 6 and the survivor count (dose: 50.0 mg/kg/injection, schedule: Q01DX009 (ip), vehicle: water) was 1 of 6. The survivor count (dose: 100.0 mg/kg/injection, schedule: Q01DX009 (ip), vehicle: water) was 0 of 6 and the survivor count (dose: 200.0 mg/kg/injection, schedule: Q01DX009 (ip), vehicle: water) was 0 of 6.
With CC12CCC(Cl)CC1=CCC1C2CCC2(C)C1CCCN2CCCl (stereo not drawn) the T/C (dose: 50.0 mg/kg/injection, schedule: Q01DX001 (ip), vehicle: saline with Tween-80) was 139 % of control, the survivor count (dose: 50.0 mg/kg/injection, schedule: Q01DX001 (ip), vehicle: saline) was 0 of 6 and the survivor count (dose: 100.0 mg/kg/injection, schedule: Q01DX001 (ip), vehicle: saline with Tween-80) was 0 of 6. The survivor count (dose: 100.0 mg/kg/injection, schedule: Q01DX001 (ip), vehicle: saline) was 0 of 6.
For CN(C)CCS(=O)(=O)O, the survivor count (dose: 12.5 mg/kg/injection, schedule: Q04DX003 (ip), vehicle: saline) was 6 of 6 and the survivor count (dose: 25.0 mg/kg/injection, schedule: Q04DX003 (ip), vehicle: saline) was 6 of 6.
In the case of Cc1n(-c2ccccc2)nn[n+]1C, the survivor count (dose: 25.0 mg/kg/injection, schedule: Q01DX009 (ip), vehicle: Klucel (hydroxypropylcellulose) (HPC)) is reported as 6 of 6.
With CC(=O)OCC1OC(n2cnc3c(=S)nc(N)[nH]c32)CC1OC(C)=O (stereo not drawn) the T/C (dose: 8.8 mg/kg/injection, schedule: Q04DX003 (ip), vehicle: saline with Tween-80) was 135 % of control, the T/C (dose: 10.0 mg/kg/injection, schedule: Q04DX003 (ip), vehicle: saline with Tween-80) was 126 and 144 % of control and the T/C (dose: 13.2 mg/kg/injection, schedule: Q04DX003 (ip), vehicle: saline with Tween-80) was 138 % of control. For the same compound, the T/C (dose: 40.0 mg/kg/injection, schedule: Q04DX003 (ip), vehicle: saline with Tween-80) was 126 % of control and the T/C (dose: 45.0 mg/kg/injection, schedule: Q04DX003 (ip), vehicle: saline with Tween-80) was 138 % of control.
For CC(C)NC(=O)OCc1c(COC(=O)NC(C)C)c(S(=O)c2ccccc2)n2c1CCC2 (stereo not drawn), the T/C (dose: 200.0 mg/kg/injection, schedule: Q01DX005 (ip), vehicle: distilled water + Tween-80) was 125 % of control.
In the case of Cc1cc2cc3n(c2nn1)N=C(Cl)CC3, the survivor count (dose: 240.0 mg/kg/injection, schedule: Q01DX005 (ip), vehicle: saline with Tween-80) is reported as 1 of 6.
In the case of COC(=N)N(C)/N=C/c1ccccc1, the survivor count (dose: 400.0 mg/kg/injection, schedule: Q01DX001 (ip), vehicle: Klucel (hydroxypropylcellulose) (HPC)) is reported as 1 of 6.
For CC1=C(C2CO2)C(=O)c2ccccc2C1=O (stereo not drawn), the survivor count (dose: 12.5 mg/kg/injection, schedule: Q01DX005 (ip), vehicle: Klucel (hydroxypropylcellulose) (HPC)) was 1 of 6, the survivor count (dose: 25.0 mg/kg/injection, schedule: Q01DX005 (ip), vehicle: Klucel (hydroxypropylcellulose) (HPC)) was 0 of 6 and the survivor count (dose: 50.0 mg/kg/injection, schedule: Q01DX005 (ip), vehicle: Klucel (hydroxypropylcellulose) (HPC)) was 0 of 6. The survivor count (dose: 100.0 mg/kg/injection, schedule: Q01DX005 (ip), vehicle: Klucel (hydroxypropylcellulose) (HPC)) was 0 of 6 and the survivor count (dose: 200.0 mg/kg/injection, schedule: Q01DX005 (ip), vehicle: Klucel (hydroxypropylcellulose) (HPC)) was 0 of 6.
With CCCN(CCC)CC(O)c1cc2cc(C(F)(F)F)cc(C(F)(F)F)c2c2cc(Cl)c(Cl)cc12 (stereo not drawn) the survivor count (dose: 50.0 mg/kg/injection, schedule: Q01DX009 (ip), vehicle: saline with Tween-80) was 6 of 6.
CCCCCCCC1C(=O)OC2CC3C(C)=CC(=O)C(O)C3(C)C3C4(O)OCC23C1C(C)C4O (stereo not drawn) was tested, and the T/C (dose: 20.0 mg/kg/injection, schedule: Q01DX005 (ip), vehicle: Klucel (hydroxypropylcellulose) (HPC)) was 130 and 135 % of control [4 of 6 alive] and the survivor count (dose: 40.0 mg/kg/injection, schedule: Q01DX005 (ip), vehicle: Klucel (hydroxypropylcellulose) (HPC)) was 0 of 6.
C=C[CH2][Sn]([CH3])([CH3])[CH2]C=C was tested, and the survivor count (dose: 200.0 mg/kg/injection, schedule: Q01DX005 (ip), vehicle: saline) was 0 of 6.
With CCCCOC1OCN(CCC)CC1(C)C (stereo not drawn) the T/C (dose: 100.0 mg/kg/injection, schedule: Q01DX009 (ip), vehicle: saline with Tween-80) was 138 % of control [5 of 6 alive], the T/C (dose: 200.0 mg/kg/injection, schedule: Q01DX009 (ip), vehicle: saline with Tween-80) was 129 and 132 % of control and the survivor count (dose: 400.0 mg/kg/injection, schedule: Q01DX009 (ip), vehicle: saline with Tween-80) was 4 of 6.
For CN(C)c1cc(N(C)C)c2cc(Cl)ccc2n1, the survivor count (dose: 200.0 mg/kg/injection, schedule: Q01DX009 (ip), vehicle: Klucel (hydroxypropylcellulose) (HPC)) was 0 of 6.
